From PubChem BioAssay AID1487 (National Center for Advancing Translational Sciences (NCATS), 2009)
The other results are listed elsewhere or left out. Further columns of the screen follow, without active or inactive calls. The list favours compounds with an active or inconclusive main result. Words in brackets tell the shape of the fitted curve; partial curves, single points and poor fits give uncertain potencies.

Assay: qHTS Assay for Modulators of Lamin A Splicing
Conditions: HeLa LMNA splicing GFP/RFP minigene ratio, 48 h
In short: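 S3 HeLa stable clones carrying a lamin A-EGFP splicing minigene plus DsRed2 were seeded at 600 cells/well in Opti-MEM with 2% FBS, pin-dosed and incubated 48 h at 37°C. Acumen cytometry (488 nm) gave the GFP/RFP total-intensity ratio.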

[1] = measured here: GFP splicing reporter channel
[2] = measured here: RFP viability control channel

Nc1c(-c2cccs2)cnn1-c1nc(-c2ccc(F)cc2)cs1
AC50 [1]: 15.8 µM [falling, single point] | AC50 [2]: 12.6 µM [falling, partial curve]

Cc1ccc(Nc2nc3ccccc3s2)c(C)c1
AC50 [2]: 12.6 µM [rising, partial curve]

CC(C)CCNC(=O)CN1C(=O)CSc2ccc(S(=O)(=O)N3CCC(C)CC3)cc21
AC50 [1]: 0.1 µM [falling, full curve]

COc1ccc(CCNc2oc(Cc3ccccc3)nc2C#N)cc1OC
AC50 [2]: 20 µM [rising, single point]

Cc1cc(C)c(S(=O)(=O)c2ccccc2)c(OC(=O)c2c(F)cccc2F)n1
AC50 [2]: 1 µM [rising, partial curve]

Cc1cc2cccc(C)c2nc1SCC(=O)NNC(=O)c1ccco1
AC50 [1]: 0.158 µM [falling, full curve, poor fit]

Cc1ccc(OCCN2C(=O)c3ccccc3C2=O)c([N+](=O)[O-])c1
AC50 [2]: 20 µM [rising, single point]

Cc1cc(NC(=O)COC(=O)C2COc3ccccc3O2)no1 (stereo not given)
AC50 [2]: 0.708 µM [falling, full curve, poor fit]

c1ccc2c(c1)oc1c(Nc3ccc(CN4CCOCC4)cc3)ncnc12
AC50 [2]: 12.6 µM [rising, partial curve, poor fit]

COCCN(Cc1ccccc1)C(=S)Nc1ccc(OC(F)F)cc1
AC50 [2]: 17.8 µM [rising, partial curve]

COc1ccc(OCC(=O)Nc2ccc3nc(C)sc3c2)cc1
AC50 [2]: 0.398 µM [falling, full curve, poor fit]

Cc1ccc(NC(=O)CSc2nc(=O)n(Cc3cccnc3)c3c2CCC3)cc1F
AC50 [1]: 3.98 µM [falling, full curve, poor fit]

Cc1nn(C(=O)c2cccnc2)c(C)c1Sc1ccccc1
AC50 [2]: 31.6 µM [rising, single point]

O=c1c(/C=C(\O)c2ccc(F)cc2)nc2ccccc2n1-c1ccccc1
AC50 [1]: 35.5 µM [falling, single point] | AC50 [2]: 25.1 µM [falling, single point]

O=C(CCCc1nc(-c2ccccc2)no1)Nc1cccnc1
AC50 [2]: 15.8 µM [rising, single point]

CCCNS(=O)(=O)c1ccc(NC(=O)Cc2cccs2)cc1
AC50 [2]: 35.5 µM [rising, single point]

COc1ccc(Cc2nc3ccc(C(=O)NCc4ccccc4C)cc3o2)cc1
AC50 [1]: 0.794 µM [falling, full curve, poor fit]

CCC(CC)C(=O)Nc1ccc2nc(SCC(=O)N3CCCC3)sc2c1
AC50 [2]: 0.00447 µM [rising, full curve, poor fit]
